Laboratory results taken from PubChem BioAssay AID192 (DTP/NCI, 2004).
The list does not hold the whole screen: it is rich in T/C values a quarter to a half above the control, in often repeated tests (any T/C) and in doses without a T/C. Further doses and runs are listed elsewhere. T/C is the treated group as % of the vehicle group. Some entries give survivors of the animals treated and no T/C: the source files T/C as zero there, which appears to mark a toxic dose or a test without result, not a measured value. Some survivor counts are full or nearly so, which does not show that the dose was tolerated: the source hardly ever lists a survival T/C far under the control, and the zero likely stands for such cases as well. Survivors were counted at the toxicity check, usually on the fifth day, unless a day is given; later deaths do not show. Schedule codes are those of the source, read here as Q, the interval in days (D) or hours (H), X, the number of doses. Some entries were tested several times; the values are given in rising order. Some structures stand for samples that the source files as different forms (salt, stereo form or complex); doses refer to the form tested. Where survival is the endpoint, this PubChem deposit counts one and a half times the control or more as active, and values a quarter to a half above the control carry no call in these data; other NCI protocols may use other cut-offs. Some T/C values are followed by the survivors on the day toxicity was checked, most often the fifth; without a count, all were alive then. Counts like (3×) stand for listed records that agree.

Test system: BDF1 mice, B16 melanoma ip, median survival T/C
Assay: NCI In Vivo Anticancer Drug Screen. Data for tumor model B16 Melanoma (intraperitoneal) in B6D2F1 (BDF1) mice
Conditions: T/C endpoint: median survival time, higher T/C = longer survival
Outline: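 Values are ratios of treated (T) to vehicle-control (C) measurements of survival or tumor size in tumor-bearing mice.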

[1] = dose: 150.0 mg/kg/injection, schedule: Q01DX009 (ip), vehicle: water
[2] = dose: 200.0 mg/kg/injection, schedule: Q01DX009 (ip), vehicle: Klucel (hydroxypropylcellulose) (HPC)
[3] = dose: 400.0 mg/kg/injection, schedule: Q01DX009 (ip), vehicle: Klucel (hydroxypropylcellulose) (HPC)
[4] = dose: 100.0 mg/kg/injection, schedule: Q01DX009 (ip), vehicle: saline
[5] = dose: 200.0 mg/kg/injection, schedule: Q01DX009 (ip), vehicle: saline
[6] = dose: 100.0 mg/kg/injection, schedule: Q04DX003 (ip), vehicle: saline
[7] = dose: 200.0 mg/kg/injection, schedule: Q04DX003 (ip), vehicle: saline
[8] = dose: 400.0 mg/kg/injection, schedule: Q04DX003 (ip), vehicle: saline
[9] = dose: 200.0 mg/kg/injection, schedule: Q01DX009 (ip), vehicle: saline with Tween-80

## CCCCCCCCC(=O)N(C)OC
dose: 25.0 mg/kg/injection, schedule: Q04DX003 (ip), vehicle: saline with Tween-80
  survivor count: 10 of 10
dose: 50.0 mg/kg/injection, schedule: Q04DX003 (ip), vehicle: saline with Tween-80
  survivor count: 10 of 10
dose: 100.0 mg/kg/injection, schedule: Q04DX003 (ip), vehicle: saline with Tween-80
  survivor count: 10 of 10

## O=C(O)c1c2c(nc3ccccc13)Cc1ccccc1-2
dose: 25.0 mg/kg/injection, schedule: Q01DX009 (ip), vehicle: Klucel (hydroxypropylcellulose) (HPC)
  T/C: 103, 125, 134, 180 % of control
dose: 44.0 mg/kg/injection, schedule: Q01DX009 (ip), vehicle: water
  T/C: 139 % of control
dose: 50.0 mg/kg/injection, schedule: Q01DX009 (ip), vehicle: Klucel (hydroxypropylcellulose) (HPC)
  T/C: 130, 135, 136, 209 % of control
dose: 50.0 mg/kg/injection, schedule: Q01DX009 (ip), vehicle: water
  T/C: 135 and 141 % of control
dose: 59.0 mg/kg/injection, schedule: Q01DX009 (ip), vehicle: Klucel (hydroxypropylcellulose) (HPC)
  T/C: 135 % of control
dose: 67.0 mg/kg/injection, schedule: Q01DX009 (ip), vehicle: water
  T/C: 132 % of control
dose: 89.0 mg/kg/injection, schedule: Q01DX009 (ip), vehicle: Klucel (hydroxypropylcellulose) (HPC)
  T/C: 141 % of control
dose: 89.0 mg/kg/injection, schedule: Q04DX003 (ip), vehicle: Klucel (hydroxypropylcellulose) (HPC)
  T/C: 134 % of control
dose: 100.0 mg/kg/injection, schedule: Q01DX009 (ip), vehicle: Klucel (hydroxypropylcellulose) (HPC)
  T/C: 151, 169 [9 of 10 alive], 187, 231 % of control
dose: 100.0 mg/kg/injection, schedule: Q01DX009 (ip), vehicle: water
  T/C: 140 (2×), 157, 169 % of control
dose: 100.0 mg/kg/injection, schedule: Q04DX003 (ip), vehicle: water
  T/C: 130 % of control
dose: 133.0 mg/kg/injection, schedule: Q01DX001 (ip), vehicle: Klucel (hydroxypropylcellulose) (HPC)
  T/C: 129 % of control
[1]
  T/C: 135 % of control
  survivor count: 10 of 10
dose: 150.0 mg/kg/injection, schedule: Q03HX016 (ip), vehicle: water
  survivor count: 3 of 10
dose: 150.0 mg/kg/injection, schedule: Q03HX024 (ip), vehicle: water
  survivor count: 4 of 10
[2]
  T/C: 143 and 150 % of control [9 of 10 alive]
  survivor count: 7 of 10, 8 of 10, 9 of 10
dose: 200.0 mg/kg/injection, schedule: Q01DX009 (ip), vehicle: water
  survivor count: 8 of 10
dose: 200.0 mg/kg/injection, schedule: Q04DX003 (ip), vehicle: Klucel (hydroxypropylcellulose) (HPC)
  T/C: 130 % of control
dose: 225.0 mg/kg/injection, schedule: Q01DX009 (ip), vehicle: water
  survivor count: 2 of 10 and 10 of 10
dose: 300.0 mg/kg/injection, schedule: Q01DX001 (ip), vehicle: Klucel (hydroxypropylcellulose) (HPC)
  T/C: 125 % of control
dose: 300.0 mg/kg/injection, schedule: Q01DX009 (ip), vehicle: Klucel (hydroxypropylcellulose) (HPC)
  survivor count: 2 of 10, 3 of 10, 10 of 10
dose: 300.0 mg/kg/injection, schedule: Q04DX003 (ip), vehicle: Klucel (hydroxypropylcellulose) (HPC)
  T/C: 130 % of control
dose: 337.0 mg/kg/injection, schedule: Q01DX001 (ip), vehicle: water
  survivor count: 6 of 10
dose: 337.0 mg/kg/injection, schedule: Q08DX002 (ip), vehicle: water
  survivor count: 5 of 10
[3]
  survivor count: 5 of 10
dose: 400.0 mg/kg/injection, schedule: Q01DX009 (ip), vehicle: water
  survivor count: 0 of 10
dose: 450.0 mg/kg/injection, schedule: Q04DX003 (ip), vehicle: Klucel (hydroxypropylcellulose) (HPC)
  survivor count: 6 of 10
dose: 506.0 mg/kg/injection, schedule: Q01DX001 (ip), vehicle: water
  survivor count: 0 of 10
dose: 506.0 mg/kg/injection, schedule: Q04DX003 (ip), vehicle: water
  survivor count: 0 of 10
dose: 675.0 mg/kg/injection, schedule: Q01DX001 (ip), vehicle: water
  survivor count: 0 of 10

## O=C(O)CCNCCO
[4]
  survivor count: 10 of 10
[5]
  survivor count: 9 of 10

## CC(C)(CO)C(O)C(=O)NNCc1ccccc1 (stereo unspecified)
dose: 100.0 mg/kg/injection, schedule: Q04DX003 (ip), vehicle: Klucel (hydroxypropylcellulose) (HPC)
  survivor count: 10 of 10

## COC(=O)[C@H]1[C@H]2C[C@@H]3c4[nH]c5cc(OC)ccc5c4CCN3C[C@H]2C[C@@H](OC(=O)c2cccc(N(C)C)c2)[C@@H]1OC
dose: 0.39 mg/kg/injection, schedule: Q01DX009 (ip), vehicle: Klucel (hydroxypropylcellulose) (HPC)
  survivor count: 10 of 10
dose: 3.12 mg/kg/injection, schedule: Q01DX009 (ip), vehicle: Klucel (hydroxypropylcellulose) (HPC)
  survivor count: 9 of 10
dose: 6.25 mg/kg/injection, schedule: Q01DX009 (ip), vehicle: Klucel (hydroxypropylcellulose) (HPC)
  survivor count: 9 of 10 and 10 of 10

## CCC(N)CC
[4]
  T/C: 132 % of control

## O=C(CCN1CC1)Nc1ccc(NC(=O)CCN2CC2)cc1
dose: 2.5 mg/kg/injection, schedule: Q04DX003 (ip), vehicle: Klucel (hydroxypropylcellulose) (HPC)
  T/C: 139 % of control
dose: 40.0 mg/kg/injection, schedule: Q04DX003 (ip), vehicle: Klucel (hydroxypropylcellulose) (HPC)
  survivor count: 10 of 10

## FC(F)(F)c1ccc2c(c1)N(CCCNCCN1CCOCC1)c1ccccc1S2
dose: 3.12 mg/kg/injection, schedule: Q04DX003 (ip), vehicle: saline
  survivor count: 10 of 10
dose: 6.25 mg/kg/injection, schedule: Q01DX009 (ip), vehicle: saline
  survivor count: 10 of 10
dose: 25.0 mg/kg/injection, schedule: Q01DX009 (ip), vehicle: saline
  survivor count: 10 of 10
[6]
  survivor count: 0 of 10
[7]
  survivor count: 0 of 10
[8]
  survivor count: 0 of 10

## C=CCC(N)Cc1ccccc1 (stereo unspecified)
[4]
  survivor count: 5 of 10
[6]
  survivor count: 7 of 10
[5]
  survivor count: 0 of 10
[7]
  survivor count: 0 of 10
[8]
  survivor count: 0 of 10

## COC(=O)CCC1=C(C)c2cc3[n-]c(cc4nc(cc5[n-]c(cc1n2)c(CCC(=O)OC)c5C)C=C4C)cc3C.[Ni+2]
dose: 12.5 mg/kg/injection, schedule: Q01DX009 (ip), vehicle: saline with Tween-80
  survivor count: 10 of 10
dose: 25.0 mg/kg/injection, schedule: Q01DX009 (ip), vehicle: saline with Tween-80
  survivor count: 10 of 10
dose: 50.0 mg/kg/injection, schedule: Q01DX009 (ip), vehicle: saline with Tween-80
  survivor count: 10 of 10
dose: 100.0 mg/kg/injection, schedule: Q01DX009 (ip), vehicle: saline with Tween-80
  survivor count: 10 of 10
[9]
  survivor count: 8 of 10
dose: 400.0 mg/kg/injection, schedule: Q01DX009 (ip), vehicle: saline with Tween-80
  survivor count: 10 of 10

## Nc1ccc2cc(S(=O)(=O)O)cc(O)c2c1N=Nc1ccc(F)cc1
[5]
  survivor count: 6 of 10
dose: 400.0 mg/kg/injection, schedule: Q01DX009 (ip), vehicle: saline
  survivor count: 2 of 10

## CC(C)C1(C(=O)NNC(=O)CCCc2ccc(N(CCCl)CCCl)cc2)OC2(O)CCCCCN2C1=O (stereo unspecified)
dose: 6.25 mg/kg/injection, schedule: Q01DX009 (ip), vehicle: DMSO
  survivor count: 8 of 8
dose: 25.0 mg/kg/injection, schedule: Q01DX009 (ip), vehicle: DMSO
  survivor count: 10 of 10
dose: 25.0 mg/kg/injection, schedule: Q04DX003 (ip), vehicle: Klucel (hydroxypropylcellulose) (HPC)
  T/C: 133 % of control
dose: 50.0 mg/kg/injection, schedule: Q01DX009 (ip), vehicle: DMSO
  survivor count: 0 of 10
dose: 50.0 mg/kg/injection, schedule: Q04DX003 (ip), vehicle: Klucel (hydroxypropylcellulose) (HPC)
  T/C: 133 % of control
dose: 100.0 mg/kg/injection, schedule: Q01DX009 (ip), vehicle: DMSO
  survivor count: 0 of 10

## O=c1oc(-c2ccccc2I)nc2ccccc12
[3]
  survivor count: 0 of 10

## C#CCOCC1CO1 (stereo unspecified)
[9]
  survivor count: 3 of 6
